Experimental data from US7906486B2, “Method of treating or preventing tissue deterioration, injury or damage due to disease of mucosa” (SciClone Pharmaceuticals, Inc., priority 2007, dated 2011).
Several values for one entry are separate records, joined by “and”; a condition that tells them apart may be missing. Identical values can stand only once. Further values from the same series stand in other lists.

System: oral mucositis induced by acute radiation (40 Gy, left buccal cheek pouch)
Experiment: Oral mucositis induced by acute radiation in hamsters, mucositis scoring (Example 1, SCI-01)
Type: in vivo, Syrian Golden Hamsters
Set-up: key: 0: Pouch completely healthy. No erythema or vasodilation.; 1: Light to severe erythema and vasodilation. No erosion of mucosa.; 2: Severe erythema and vasodilation. Erosion of superficial aspects of mucosa leaving denuded areas. Decreased stippling of mucosa.; 3: Formation of off-white ulcers in one or more places. Ulcers may have a yellow/gray due to pseudomembrane. Cumulative size of ulcers should equal about ¼ of the pouch. Severe erythema and vasodilation.; 4: Cumulative seize of ulcers should equal about ½ of the pouch. Loss of pliability. Severe erythema and vasodilation.; 5: Virtually all of pouch is ulcerated. Loss of pliability (pouch can only partially be extracted from mouth)
Text: The acute radiation model in hamsters has proven to be an accurate, efficient and cost-effective technique to provide a preliminary evaluation of anti-mucositis compounds. The course of mucositis in this model is well defined and results in peak scores approximately 14-16 Days following radiation. The acute model has little systemic toxicity, resulting in few hamster deaths, thus permitting the use of smaller groups (N=7-8) for initial efficacy studies. It has also been used to study specific mechanistic elements in the pathogenesis of mucositis. Molecules that show efficacy in the acute radiation model may be further evaluated in the more complex models of fractionated radiation, chemotherapy, or concomitant therapy.
In this study, an acute radiation dose of 40 Gy on day 0 was administered. Clinically significant mucositis was observed on days 12 through 28.
Thirty-two (32) Syrian Golden Hamsters were given an acute radiation dose of 40 Gy directed to their left buccal cheek pouch on day 0. Test materials were given by sub-cutaneous injection once daily. Dosing began one day before radiation (day −1) and continued until day 16. Mucositis was evaluated clinically starting on day 6, and continuing on alternate days until day 28.
The grade of mucositis was scored, beginning day 6, and for every second day thereafter, through and including day 28. The effect on mucositis of each drug treatment compared to placebo was assessed according to the following parameters:
The difference in the number of days hamsters in each group have ulcerative (score ≧3) mucositis.
On each evaluation day, the number of animals with a blinded mucositis score of 3 in each drug treatment group was compared to the control group. Differences were compared on a cumulative basis and statistical significance was determined by chi-square analysis. Efficacy, in this analysis, is defined by a significant reduction in the number of days that a group of animals had ulcerations (scores 3) when compared to the control group.
For each evaluation day the scores of the control group were compared to those of the treated groups using non-parametric rank sum analysis. Treatment success was considered as a statistically significant lowering of scores in the treated group on 2 or more days from day 6 to day 28.
Thirty-two Syrian Golden Hamsters were divided into four (4) groups of eight (8) animals each. All animals received a single dose of acute radiation of 40 Gy directed to their left buccal cheek pouch on day 0. This was accomplished by anesthetizing the animals and everting the left buccal pouch, while protecting the rest of the animals with a lead shield. Test materials were given by sub-cutaneous injection once daily as detailed in Table 1. Mucositis was evaluated clinically starting on Day 6, and continuing on alternate days until day 28.
Mucositis was induced using a standardized acute radiation protocol. A single dose of radiation (40 Gy/dose) was administered to all animals on day 0. Radiation was generated with a 160 kilovolt potential (15-ma) source at a focal distance of 30 cm, hardened with a 0.35 mm Cu filtration system. Irradiation targeted the left buccal pouch mucosa at a rate of 3.2 Gy/minute. Prior to irradiation, animals were anesthetized with an intraperitoneal injection of Ketamine (160 mg/kg) and Xylazine (8 mg/kg). The left buccal pouch was everted, fixed and isolated using a lead shield to protect all other parts of the hamster's body.
The mucositis score, weight change and survival were measured throughout the study as described above. For the evaluation of mucositis, the animals were anesthetized with an inhalation anesthetic, and the left pouch everted. Mucositis was scored visually by comparison to a validated photographic scale, ranging from 0 for normal, to 5 for severe ulceration (clinical scoring). In descriptive terms, this scale is defined as follows: […]

Compound: N[C@H](CCC(=O)N[C@@H](Cc1c[nH]c2ccccc12)C(=O)O)C(=O)O [SCV-07, γ-D-glutamyl-L-tryptophan]
- Mucositis score (Group 2 (SCV-07 1 ug/kg, days -1 to 16), day 6, individual animals): 0 (6×) and 1 (2×)
- Mucositis score (Group 2 (SCV-07 1 ug/kg, days -1 to 16), day 8, individual animals): 1 (7×) and 0
- Mucositis score (Group 2 (SCV-07 1 ug/kg, days -1 to 16), day 10, individual animals): 2 (2×) and 1 (5×) and 3
- Mucositis score (Group 2 (SCV-07 1 ug/kg, days -1 to 16), day 12, individual animals): 2 (6×) and 3 and 1
- Mucositis score (Group 2 (SCV-07 1 ug/kg, days -1 to 16), day 14, individual animals): 3 (4×) and 2 (4×)
- Mucositis score (Group 2 (SCV-07 1 ug/kg, days -1 to 16), day 16, individual animals): 4 and 3 (7×)
- Mucositis score (Group 2 (SCV-07 1 ug/kg, days -1 to 16), day 18, individual animals): 4 (7×) and 3
- Mucositis score (Group 2 (SCV-07 1 ug/kg, days -1 to 16), day 20, individual animals): 3 (6×) and 2 and 4
- Mucositis score (Group 2 (SCV-07 1 ug/kg, days -1 to 16), day 22, individual animals): 3 (4×) and 2 (4×)
- Mucositis score (Group 2 (SCV-07 1 ug/kg, days -1 to 16), day 24, individual animals): 3 (4×) and 2 (4×)
- Mucositis score (Group 2 (SCV-07 1 ug/kg, days -1 to 16), day 26, individual animals): 2 (6×) and 3 and 1
- Mucositis score (Group 2 (SCV-07 1 ug/kg, days -1 to 16), day 28, individual animals): 0 and 1 (7×)
- Mucositis score (Group 3 (SCV-07 10 ug/kg, days -1 to 16), day 6, individual animals): 1 (5×) and 0 (3×)
- Mucositis score (Group 3 (SCV-07 10 ug/kg, days -1 to 16), day 8, individual animals): 1 (7×) and 0
- Mucositis score (Group 3 (SCV-07 10 ug/kg, days -1 to 16), day 10, individual animals): 1
- Mucositis score (Group 3 (SCV-07 10 ug/kg, days -1 to 16), day 12, individual animals): 2 (7×) and 1
- Mucositis score (Group 3 (SCV-07 10 ug/kg, days -1 to 16), day 14, individual animals): 2 (6×) and 3 (2×)
- Mucositis score (Group 3 (SCV-07 10 ug/kg, days -1 to 16), day 16, individual animals): 3
- Mucositis score (Group 3 (SCV-07 10 ug/kg, days -1 to 16), day 18, individual animals): 4 (6×) and 3 (2×)
- Mucositis score (Group 3 (SCV-07 10 ug/kg, days -1 to 16), day 20, individual animals): 3 (7×) and 2
- Mucositis score (Group 3 (SCV-07 10 ug/kg, days -1 to 16), day 22, individual animals): 2 (5×) and 1 (2×) and 3
- Mucositis score (Group 3 (SCV-07 10 ug/kg, days -1 to 16), day 24, individual animals): 2 (6×) and 3 (2×)
- Mucositis score (Group 3 (SCV-07 10 ug/kg, days -1 to 16), day 26, individual animals): 2 (5×) and 1 (2×) and 3
- Mucositis score (Group 3 (SCV-07 10 ug/kg, days -1 to 16), day 28, individual animals): 1 (6×) and 2 and 0
- Mucositis score (Group 4 (SCV-07 100 ug/kg, days -1 to 16), day 6, individual animals): 0 (5×) and 1 (3×)
- Mucositis score (Group 4 (SCV-07 100 ug/kg, days -1 to 16), day 8, individual animals): 1 (4×) and 0 (4×)
- Mucositis score (Group 4 (SCV-07 100 ug/kg, days -1 to 16), day 10, individual animals): 1 (7×) and 2
- Mucositis score (Group 4 (SCV-07 100 ug/kg, days -1 to 16), day 12, individual animals): 1 and 2 (7×)
- Mucositis score (Group 4 (SCV-07 100 ug/kg, days -1 to 16), day 14, individual animals): 2 (6×) and 3 (2×)
- Mucositis score (Group 4 (SCV-07 100 ug/kg, days -1 to 16), day 16, individual animals): 3 (6×) and 2 and 4
- Mucositis score (Group 4 (SCV-07 100 ug/kg, days -1 to 16), day 18, individual animals): 4 (5×) and 3 (2×) and 2
- Mucositis score (Group 4 (SCV-07 100 ug/kg, days -1 to 16), day 20, individual animals): 4 and 3 (5×) and 1 and 2
- Mucositis score (Group 4 (SCV-07 100 ug/kg, days -1 to 16), day 22, individual animals): 4 and 3 (3×) and 2 (3×) and 1
- Mucositis score (Group 4 (SCV-07 100 ug/kg, days -1 to 16), day 24, individual animals): 3 and 2 (7×)
- Mucositis score (Group 4 (SCV-07 100 ug/kg, days -1 to 16), day 26, individual animals): 3 (3×) and 2 and 1 (4×)
- Mucositis score (Group 4 (SCV-07 100 ug/kg, days -1 to 16), day 28, individual animals): 1 (6×) and 2 and 3
